The values below come from patent publication US20100113557A1.

Sequences of proteins named here, by UniProt entry; tags and fusion partners are left off.
UniProt P38398: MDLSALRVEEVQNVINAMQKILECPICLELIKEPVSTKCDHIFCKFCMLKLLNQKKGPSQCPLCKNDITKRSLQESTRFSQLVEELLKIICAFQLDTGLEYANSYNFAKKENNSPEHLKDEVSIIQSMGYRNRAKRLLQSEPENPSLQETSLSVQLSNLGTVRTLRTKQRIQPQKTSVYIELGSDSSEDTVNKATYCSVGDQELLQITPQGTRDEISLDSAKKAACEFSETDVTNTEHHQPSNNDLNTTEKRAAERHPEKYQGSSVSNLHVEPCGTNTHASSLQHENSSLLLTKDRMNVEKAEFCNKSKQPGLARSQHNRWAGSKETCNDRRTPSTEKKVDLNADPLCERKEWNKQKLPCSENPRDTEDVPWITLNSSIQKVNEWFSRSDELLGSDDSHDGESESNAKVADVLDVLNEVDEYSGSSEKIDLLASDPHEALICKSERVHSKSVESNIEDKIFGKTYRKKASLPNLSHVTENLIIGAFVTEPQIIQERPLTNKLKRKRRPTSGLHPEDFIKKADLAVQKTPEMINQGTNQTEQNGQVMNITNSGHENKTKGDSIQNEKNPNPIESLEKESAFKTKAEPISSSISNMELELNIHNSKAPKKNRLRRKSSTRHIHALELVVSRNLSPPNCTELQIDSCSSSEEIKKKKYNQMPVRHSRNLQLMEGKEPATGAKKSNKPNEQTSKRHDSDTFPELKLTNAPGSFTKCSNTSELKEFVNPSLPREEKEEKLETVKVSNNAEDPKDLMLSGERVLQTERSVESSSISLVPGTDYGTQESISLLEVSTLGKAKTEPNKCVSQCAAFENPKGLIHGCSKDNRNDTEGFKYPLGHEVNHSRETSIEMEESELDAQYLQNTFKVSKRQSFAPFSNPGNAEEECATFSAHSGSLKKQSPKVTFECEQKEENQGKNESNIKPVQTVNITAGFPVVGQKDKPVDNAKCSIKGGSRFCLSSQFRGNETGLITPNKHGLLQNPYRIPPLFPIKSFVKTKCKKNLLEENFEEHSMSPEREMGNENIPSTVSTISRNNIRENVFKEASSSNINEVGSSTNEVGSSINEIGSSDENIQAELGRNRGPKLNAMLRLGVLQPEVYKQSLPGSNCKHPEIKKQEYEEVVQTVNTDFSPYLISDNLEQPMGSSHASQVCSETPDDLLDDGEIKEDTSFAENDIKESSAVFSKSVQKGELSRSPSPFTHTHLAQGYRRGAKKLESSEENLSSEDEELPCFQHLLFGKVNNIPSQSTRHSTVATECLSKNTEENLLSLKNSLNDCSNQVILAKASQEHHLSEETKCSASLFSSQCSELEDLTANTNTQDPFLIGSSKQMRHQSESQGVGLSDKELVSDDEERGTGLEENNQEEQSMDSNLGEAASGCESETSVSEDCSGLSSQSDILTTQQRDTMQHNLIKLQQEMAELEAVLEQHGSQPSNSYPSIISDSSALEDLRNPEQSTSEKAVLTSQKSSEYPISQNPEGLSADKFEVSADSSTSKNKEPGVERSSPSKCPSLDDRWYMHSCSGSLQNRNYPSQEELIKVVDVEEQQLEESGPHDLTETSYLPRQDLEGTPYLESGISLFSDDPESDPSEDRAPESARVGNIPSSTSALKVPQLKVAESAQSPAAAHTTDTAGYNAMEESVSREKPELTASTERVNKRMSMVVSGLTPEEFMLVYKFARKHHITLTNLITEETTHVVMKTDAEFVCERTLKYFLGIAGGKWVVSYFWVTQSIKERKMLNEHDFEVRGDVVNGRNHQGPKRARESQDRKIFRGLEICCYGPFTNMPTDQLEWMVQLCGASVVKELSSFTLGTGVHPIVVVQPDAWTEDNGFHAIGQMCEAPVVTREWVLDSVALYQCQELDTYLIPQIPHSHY

In experiment [1] the target is FLAG-BRCA1 (UniProt P38398). In words: restates the co-immunoprecipitation result of Example 1.
For experiment [2], the target named is FLAG-BRCA1 (UniProt P38398). In words: reciprocal co-immunoprecipitation and Western blot, co-transfected 293T cells.
The target of experiment [3] is FLAG-BRCA1 (UniProt P38398). Kind of experiment: co-immunoprecipitation (anti-FLAG, anti-Myc) and immunoblotting, transfected 293T cells.
For experiment [4], the target named is FLAG-BRCA1 (UniProt P38398). In words: anti-FLAG immunoprecipitation of FLAG-BRCA1 from transfected 293T cells, LC/MS/MS.
Experiment [5] concerns the target FLAG-BRCA1 (UniProt P38398). Kind of experiment: anti-FLAG immunoprecipitation of FLAG-BRCA1 from MG132-treated 293T cells, LC/MS/MS of the immune complex.

These are yes or no findings as the source states them, for the method shown. For some assays here: Binding seen in cells or lysates may run through a third protein. Some binding calls cover weakened binding; strength is not graded here.

Consider “Myc-HERC2-CT (from UniProt O95714 4254-4834)”, for which the binding result with FLAG-BRCA1 [1], in the experiment with FLAG-BRCA1 [2] and with FLAG-BRCA1 [3] was “binds” in each case.
Consider “HERC2 (hect domain and RCC-like domain 2) (from UniProt O95714 1-4834) (enzyme)”, for which the binding result with FLAG-BRCA1 [4] and in the experiment with FLAG-BRCA1 [5] was “binds” throughout.
